Test results: PMC8918779
Results are given in words; binding and its absence hold for the method and conditions named. In cells and extracts the contact can be indirect. For some assays here: A result given as binding can be weak or reduced; the word gives no strength.

Protein sequences, listed by entry. Tags and fused reporters are not part of them. Lines headed by an entry give the natural chain unless they say otherwise; changes in a name come on top.
UniProt P53350: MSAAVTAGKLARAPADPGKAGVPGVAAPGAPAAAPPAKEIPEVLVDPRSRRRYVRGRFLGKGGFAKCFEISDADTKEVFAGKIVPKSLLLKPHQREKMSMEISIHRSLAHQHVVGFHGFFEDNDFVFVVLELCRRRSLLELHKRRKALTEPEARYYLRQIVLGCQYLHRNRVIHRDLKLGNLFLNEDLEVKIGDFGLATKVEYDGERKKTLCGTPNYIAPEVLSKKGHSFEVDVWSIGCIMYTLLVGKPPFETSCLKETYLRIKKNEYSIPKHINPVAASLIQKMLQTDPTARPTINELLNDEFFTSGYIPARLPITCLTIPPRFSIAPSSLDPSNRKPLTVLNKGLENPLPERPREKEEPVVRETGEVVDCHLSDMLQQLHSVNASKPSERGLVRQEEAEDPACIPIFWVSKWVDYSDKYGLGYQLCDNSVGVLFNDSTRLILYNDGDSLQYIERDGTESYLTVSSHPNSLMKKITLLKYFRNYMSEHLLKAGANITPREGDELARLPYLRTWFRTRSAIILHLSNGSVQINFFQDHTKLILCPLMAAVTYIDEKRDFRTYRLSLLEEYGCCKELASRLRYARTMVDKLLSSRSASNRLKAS
UniProt Q00536: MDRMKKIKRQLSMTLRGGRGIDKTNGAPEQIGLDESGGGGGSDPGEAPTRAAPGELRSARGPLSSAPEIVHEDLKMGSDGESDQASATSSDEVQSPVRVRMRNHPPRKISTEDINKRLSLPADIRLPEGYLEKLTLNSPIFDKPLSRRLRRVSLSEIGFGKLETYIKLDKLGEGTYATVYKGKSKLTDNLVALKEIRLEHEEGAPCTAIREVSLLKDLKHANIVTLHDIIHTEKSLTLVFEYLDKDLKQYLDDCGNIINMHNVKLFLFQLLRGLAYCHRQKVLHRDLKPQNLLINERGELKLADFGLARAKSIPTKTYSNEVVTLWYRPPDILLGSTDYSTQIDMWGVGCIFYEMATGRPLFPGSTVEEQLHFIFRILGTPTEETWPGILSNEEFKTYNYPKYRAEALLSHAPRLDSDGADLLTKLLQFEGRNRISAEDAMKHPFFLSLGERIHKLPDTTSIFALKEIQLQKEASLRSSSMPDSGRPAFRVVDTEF
UniProt P67775: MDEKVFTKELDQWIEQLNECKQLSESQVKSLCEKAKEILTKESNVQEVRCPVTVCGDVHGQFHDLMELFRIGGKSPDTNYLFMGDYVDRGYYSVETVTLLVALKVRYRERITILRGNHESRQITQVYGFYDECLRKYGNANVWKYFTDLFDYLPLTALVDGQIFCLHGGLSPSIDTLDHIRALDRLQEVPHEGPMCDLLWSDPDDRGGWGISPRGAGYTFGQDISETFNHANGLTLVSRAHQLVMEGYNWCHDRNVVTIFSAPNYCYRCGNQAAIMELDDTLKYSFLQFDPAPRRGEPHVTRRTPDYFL

Experiments:
[1] = target: HA-tagged PLK1 polo-box domain mutant (UniProt P53350); experiment: co-IP; HA-tagged PLK1 (WT, KD or PBD mutant; 1 µg each) transiently transfected in U2OS; PLK1 pulled down by anti-HA antibody on protein A or G sepharose, overnight at 4°C; western blot for endogenous PCTAIRE1
[2] = target: PCTAIRE1 (human (endogenous in 293T and U2OS)) (UniProt Q00536); experiment: co-IP; endogenous PCTAIRE1 immunoprecipitated from 293T lysate (NP-40 lysis buffer) with anti-PCTAIRE1 antibody on protein A or G sepharose, overnight at 4°C, washed three times with PBS; western blots for PP2A-A, PP2A-C, SIRT1 and DBC1

Q: With PCTAIRE1 (from UniProt Q00536 1-496) as the substance, how does the binding [1] read?
A: no binding

Q: With PP2A C subunit (from UniProt P67775) as the substance, how does the binding [2] read?
A: binds
